The list shows a part of the results. No rule for the calls is given here. Repeats in this data set agree poorly, so a single value says little.
Test system: Lgr5 (MarsCy1-Lgr5-EGFP, U2OS)
Test: cell-surface Lgr5 expression (SCi1 fluorescence, background-subtracted) relative to WT DMSO (fold of DMSO control); higher = more Lgr5 at the plasma membrane
Conditions: U2OS MarsCy1-Lgr5-EGFP stable; treatment time: overnight; library: Kinase Gold; 20 µM
Protocol: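 U2OS cells stably expressing MarsCy1-Lgr5-EGFP in 384-well plates were incubated overnight with single-dose compounds. Cell-surface Lgr5 was stained with SCi1 and scanned at 700 nm on a LI-COR Odyssey. Intensity was background-subtracted (parental U2OS) and expressed relative to WT DMSO wells.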

cell-surface Lgr5 expression, inactive:
CC(=O)NNC(=O)c1c(O)c2ccccc2n(C)c1=O 0.786
O=c1[nH]c(/C=C/c2ccc(O)cc2)nc2ccccc12 1.13
COC(=O)c1c(N)sc(C(=O)Nc2cc(C)ccc2C)c1C 0.885
CC(=O)Nc1c(O)nc(SCc2ccccc2C#N)[nH]c1=O 0.739
O=C1SC(Nc2ccc3ccccc3c2)C(=O)N1c1ccccc1 (configuration not stated) 1.01
O=C(Nc1nc2ccccc2s1)c1ccc2c(c1)OCCO2 0.6
O=C(CSc1nc2ccccc2[nH]1)NNC(=O)Cc1ccccc1 0.907
NNC(=O)c1cc(-c2ccc(Cl)cc2)n[nH]1 0.837
CC(NC(=O)C(=O)NCC1CCNCC1)c1ccccc1 (configuration not stated) 0.94
NNC(=O)c1c(NC(=O)c2ccccc2)sc2c1CCCCC2 0.321
Cc1nc(C(=O)NN)cc2c1[nH]c1ccccc12 0.547
COc1cccc(NC(=O)c2cc3cc(OC)ccc3oc2=O)c1 0.949
CCOC(=O)c1c(CNC)n(C)c2cc(Br)c(O)cc12 1.12
COc1cccc(C(=O)/C=C\Nc2ccc3c(c2)OCO3)c1 0.813
O=C(NCCc1ccc(F)cc1)C(=O)NCc1ccco1 0.772
O=C(/C=C/c1cccs1)NC(=S)NNC(=O)c1ccccc1O 0.449
O=C(Nc1nc2ccccc2s1)c1c(O)c2ccccc2[nH]c1=O 0.907
O=C(COc1ccccc1)NNC(=O)c1cc2ccccc2o1 0.875
COc1ccccc1NC(=O)c1cc2ccc(O)cc2oc1=O 0.71
CCn1c(=O)c(C(=O)Nc2ccc(Cl)cc2)c(O)c2ccccc21 0.651
CC(=O)NNC(=O)C(=O)c1c[nH]c2ccccc12 0.632
CC(=O)c1ccc(-c2ccc(/C=C3/SC(=S)NC3=O)o2)cc1 0.527

Quoted at random: 2 entries already listed, in no set order.
cell-surface Lgr5 expression, inactive:
CCn1c(=O)c(C(=O)Nc2ccc(Cl)cc2)c(O)c2ccccc21 0.651
NNC(=O)c1c(NC(=O)c2ccccc2)sc2c1CCCCC2 0.321

Source: the supplement of paper PMC4683952
